Data on one molecule can be found in patent publication US20220275075A1.

By UniProt entry, the sequences of proteins in these tests, tags left out. Where a name states a change or a piece, a line headed by the entry shows the natural chain unless it says otherwise.
UniProt Q8CI19: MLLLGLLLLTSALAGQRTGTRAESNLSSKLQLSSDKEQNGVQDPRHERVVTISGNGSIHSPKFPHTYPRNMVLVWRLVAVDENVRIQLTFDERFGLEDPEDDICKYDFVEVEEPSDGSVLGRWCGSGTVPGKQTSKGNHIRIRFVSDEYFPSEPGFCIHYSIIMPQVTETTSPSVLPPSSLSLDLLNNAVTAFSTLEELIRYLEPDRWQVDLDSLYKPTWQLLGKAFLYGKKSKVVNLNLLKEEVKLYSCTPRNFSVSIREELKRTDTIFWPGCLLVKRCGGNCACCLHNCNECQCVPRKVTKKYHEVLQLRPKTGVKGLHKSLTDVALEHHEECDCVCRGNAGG

These are yes or no findings as the source states them, for the method shown. Some binding calls cover weakened binding; strength is not graded here.

Assay [1] deals with mouse PDGF-C core protein (mouse) (UniProt Q8CI19). The assay can be described thus: immunoblot (FIG. 2B). For orientation: A western blot detects proteins with antibodies after separation by electrophoresis.
For assay [2] the target is unchanged. The experiment in a line: immunoblot of COS-1 supernatant with mouse PDGF-C core, probed with purified antibody.

B1: monoclonal antibody 12F5 (antibody, mouse IgG2a, V domains shown)
VH: EVKLEESGGGLVQPGGSRELSCEGSGFTFSGFWMSWVRQTPGKTLEWIGDINSDGSAIIYAPSIKDRFTIFRDNDKSTLYLQMNNVRSEDTATYFCMRWGYYGSNYFDYWGQGTTLTVSS
VL: DVVMTQTPLSLPVSLGDQASISCRSSQSIVHSNGNTYLHWYLQKPGQSPKLLIYRVSNRFSGVPDRFSGSGSGTDFTLKISRVEAEDMGVYYCFQGTHVPFTFGSGTKLEIKR
Regarding B1, the binding entry in assay [1] and in assay [2] was “binds” each time.
